Results taken from patent US20230146870A1, “METHOD TO QUANTIFY AFFINITY AND SELECTIVITY OF SMALL MOLECULES FOR PROTEINS IN LIVING CELLS” (Ohio State Innovation Foundation, priority 2021, published 2023).

How the values were obtained:
[1] = test system: microtubules in living HeLa cells; experiment: Saturation binding of PB-GABA-Taxol in living HeLa cells by flow cytometry; settings: 1.5 μM probe
Protocol: (§1) To quantify the affinity of PB-GABA-Taxol for microtubules in living cells (cellular Kd), we developed the saturation binding method shown in FIG. 3. In this assay the cellular Kd was measured by varying the concentration of the fluorescent probe added to cells at equilibrium as established by kinetic assays of probe uptake. Total binding of this probe to specific and non-specific sites in cells in the presence of the efflux inhibitor verapamil was determined by flow cytometry. Non-specific binding was quantified separately by addition of excess paclitaxel with the probe under the same conditions. Subtraction of the linear non-specific binding contribution from the total binding curve was used analyze specific binding of the probe to tubulin of microtubules. Measurement of this cellular dissociation constant under equilibrium conditions further allowed conversion of the half-maximal inhibitory concentration (IC50) of unlabeled compounds into cellular inhibitory constants using an adaptation of the Cheng-Prusoff equation^44 for competitive modulators (Ki) or the allosteric equation^45 for non-competitive modulators (Kb and the cooperativity factor α) as implemented by GraphPad Prism.
(§2) For saturation binding assays, HeLa cells were incubated with PB-GABA-Taxol at 37° C. for 180 min in the presence of verapamil (100 μM).
(§3) OptiMEM medium containing 4% FBS was prepared as 2× stock solutions of different concentrations of PB-GABA-Taxol by serial dilution (final [DMSO]=1.2%). Aliquots of 100 μL were added to a non-treated 96-well plate in two sets in triplicate (one set for total binding and one set for non-specific binding). HeLa cells were washed twice with PBS and suspended by trypsinization with 0.25% Trypsin-EDTA at 37° C. for 5 minutes. […] The percentage of non-specific binding was determined as non-specific binding divided by total binding. The signal window (SW) was calculated as previously described^2: SW=[(mean top (maximum) signal−mean bottom (minimum) signal)−(3)*(SD top signal+SD bottom signal)]/(SD top signal), where SD=standard deviation.

[2] = test system: T1, microtubules in living HeLa cells; experiment: as above; settings: HeLa cell volume 4.5 pL
T1 construct: rows headed: PB-GABA-Taxol molecules/cell at saturation; other: calibration beads, flow cytometry; other: HeLa cell volume 4.5; cellular Kd of PB-GABA-Taxol for microtubules; other: HeLa cells, 4% FBS, 37° C., verapamil 100 μM, 3 h; other: 10% FBS vs
Protocol: as §1, §2, §3

HeLa cells = experiment: Time to equilibrium / cellular uptake of PB-GABA-Taxol by flow cytometry

CC(=O)O[C@H]1C(=O)[C@]2(C)[C@@H](OC(=O)CCCNC(=O)c3cc4cc(F)c(O)c(F)c4oc3=O)C[C@H]3OC[C@@]3(OC(C)=O)[C@H]2[C@H](OC(=O)c2ccccc2)[C@]2(O)C[C@H](OC(=O)[C@H](O)[C@@H](NC(=O)c3ccccc3)c3ccccc3)C(C)=C1C2(C)C [PB-GABA-Taxol] was tested, and the non-specific binding ([1]; 4% FBS) was 6%, the non-specific binding ([1]; 10% FBS) was 8% and the “average concentration of saturable binding sites occupied by PB-GABA-Taxol in a HeLa cell” value [2] was 22 ± 4 µM. For the same compound, the “enhancement of cellular fluorescence by verapamil vs absence of verapamil” value (“enhancement … vs absence of verapamil” for short) (HeLa cells; verapamil 10 μM) was 9 fold, the “enhancement … vs absence of verapamil” value (HeLa cells; verapamil 25 μM) was 17 fold and the “enhancement … vs absence of verapamil” value (HeLa cells; verapamil 100 μM) was 32 fold.
